Source: US8673620B2, “Radioresistant alga of the Coccomyxa genus” (priority 2010, dated 2014)

Tests used:
Coccomyxa actinabiotis [1] = experiment: Binding and concentrating of radioactive metals by microalgae, 1 year in pool-like water, gamma-spectrometry; assay type: cell-based; settings: 200 lux, pH 5.5, isotopes 110mAg, 60Co, 51Cr, 65Zn, 54Mn, 124Sb
Coccomyxa actinabiotis [2] = experiment: Maximum metal concentrations bound (BBM medium diluted 10 times); assay type: cell-based
[3] = test system: cobalt-hyperaccumulating plants; settings: cited from earlier work

SMILES | concentration factor (metal in microalgae atoms/g fresh matter / metal in water atoms/ml) (Coccomyxa actinabiotis [1]) | also measured
[51Cr] [^51Cr] | 6000 | 
[Mn] [^54Mn] | 1200 | 
[65Zn] [^65Zn] | 3000 | 
[124Sb] [^124Sb] | 200 | 
[Co+2] [cobalt] | 40 000 | cobalt bound per gram of fresh biomass (Coccomyxa actinabiotis [2]; 6 days, 1.0×10^−3 mol cobalt per gram of alga): 1.53 mg; cobalt bound per gram of fresh biomass (Coccomyxa actinabiotis [2]; 45 days, 3.8×10^−4 mol cobalt per gram of alga): 12.1 mg; cobalt bound, dry mass ([3]; Bresson et al. 2009): up to 4.3 mg thereof/g; cobalt bound, fresh mass ([3]; approximate conversion): approximately 0.4 mg/g
[Ag] [silver] | 450 000 | 
